# Results from the supplement of paper PMC8728848.
# Some of the results follow.
# Columns and labels:
# Experiment in all cases: glycan array binding signal (z-score within array); higher = stronger binding
# Conditions in all cases: glycan notation: IUPAC condensed, linker removed
# [1] = target: Gal(b1-4)Glc6S
# Procedure, shortened: (§1)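 The binding signal is a Z-score computed within each array and averaged over linkers. Arrays of the same protein sequence at different concentrations or buffers were also averaged together. Data originate from 3228 arrays in the Consortium for Functional Glycomics database, kept only where the protein sequence was available.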
# [2] = target: Gal(b1-4)GlcNAc
# Procedure, shortened: as §1
# [3] = target: Gal(b1-4)GlcNAc(a1-6)Gal(b1-4)GlcNAc
# Procedure, shortened: as §1
# [4] = target: Gal(b1-4)GlcNAc(b1-2)Man
# Procedure, shortened: as §1
# [5] = target: Gal(b1-4)GlcNAc(b1-2)Man(a1-3)Man(b1-4)GlcNAc(b1-4)GlcNAc
# Procedure, shortened: as §1
# [6] = target: Gal(b1-4)GlcNAc(b1-2)Man(a1-3)[Gal(b1-4)GlcNAc(b1-2)Man(a1-6)]Man(b1-4)GlcNAc(b1-4)GlcNAc
# Procedure, shortened: as §1
# [7] = target: Gal(b1-4)GlcNAc(b1-2)Man(a1-3)[Gal(b1-4)GlcNAc(b1-2)Man(a1-6)]Man(b1-4)GlcNAc(b1-4)[Fuc(a1-6)]GlcNAc
# Procedure, shortened: as §1
# [8] = target: Gal(b1-4)GlcNAc(b1-2)Man(a1-3)[Gal(b1-4)GlcNAc(b1-2)Man(a1-6)][Gal(b1-4)GlcNAc(b1-4)]Man(b1-4)GlcNAc(b1-4)[Fuc(a1-6)]GlcNAc
# Procedure, shortened: as §1
# [9] = target: Gal(b1-4)GlcNAc(b1-2)Man(a1-3)[Gal(b1-4)GlcNAc(b1-2)Man(a1-6)][GlcNAc(b1-4)]Man(b1-4)GlcNAc(b1-4)[Fuc(a1-6)]GlcNAc
# Procedure, shortened: as §1
# [10] = target: Gal(b1-4)GlcNAc(b1-2)Man(a1-3)[GlcNAc(b1-2)Man(a1-6)]Man(b1-4)GlcNAc(b1-4)GlcNAc
# Procedure, shortened: as §1
# [11] = target: Gal(b1-4)GlcNAc(b1-2)Man(a1-3)[GlcNAc(b1-4)][Gal(b1-4)GlcNAc(b1-2)Man(a1-6)]Man(b1-4)GlcNAc(b1-4)GlcNAc
# Procedure, shortened: as §1
# [12] = target: Gal(b1-4)GlcNAc(b1-2)Man(a1-3)[Man(a1-6)]Man(b1-4)GlcNAc(b1-4)GlcNAc
# Procedure, shortened: as §1
# [13] = target: Gal(b1-4)GlcNAc(b1-2)Man(a1-6)Man(b1-4)GlcNAc(b1-4)GlcNAc
# Procedure, shortened: as §1
# [14] = target: Gal(b1-4)GlcNAc(b1-2)Man(a1-6)[GlcNAc(b1-2)Man(a1-3)]Man(b1-4)GlcNAc(b1-4)GlcNAc
# Procedure, shortened: as §1
# [15] = target: Gal(b1-4)GlcNAc(b1-2)Man(a1-6)[Man(a1-3)]Man(b1-4)GlcNAc(b1-4)GlcNAc
# Procedure, shortened: as §1
# [16] = target: Gal(b1-4)GlcNAc(b1-2)[Gal(b1-4)GlcNAc(b1-4)]Man(a1-3)[Gal(b1-4)GlcNAc(b1-2)Man(a1-6)]Man(b1-4)GlcNAc(b1-4)GlcNAc
# Procedure, shortened: as §1
# [17] = target: Gal(b1-4)GlcNAc(b1-2)[Gal(b1-4)GlcNAc(b1-4)]Man(a1-3)[Gal(b1-4)GlcNAc(b1-2)[Gal(b1-4)GlcNAc(b1-6)]Man(a1-6)]Man(b1-4)GlcNAc(b1-4)GlcNAc
# Procedure, shortened: as §1
# [18] = target: Gal(b1-4)GlcNAc(b1-2)[Gal(b1-4)GlcNAc(b1-4)]Man(a1-3)[GlcNAc(b1-4)][Gal(b1-4)GlcNAc(b1-2)Man(a1-6)]Man(b1-4)GlcNAc(b1-4)GlcNAc
# Procedure, shortened: as §1
# [19] = target: Gal(b1-4)GlcNAc(b1-2)[Gal(b1-4)GlcNAc(b1-4)]Man(a1-3)[GlcNAc(b1-4)][Gal(b1-4)GlcNAc(b1-2)[Gal(b1-4)GlcNAc(b1-6)]Man(a1-6)]Man(b1-4)GlcNAc(b1-4)GlcNAc
# Procedure, shortened: as §1
# [20] = target: Gal(b1-4)GlcNAc(b1-2)[Gal(b1-4)GlcNAc(b1-6)]Man(a1-6)[Gal(b1-4)GlcNAc(b1-2)Man(a1-3)]Man(b1-4)GlcNAc(b1-4)GlcNAc
# Procedure, shortened: as §1
# [21] = target: Gal(b1-4)GlcNAc(b1-2)[Gal(b1-4)GlcNAc(b1-6)]Man(a1-6)[Gal(b1-4)GlcNAc(b1-2)Man(a1-3)]Man(b1-4)GlcNAc(b1-4)[Fuc(a1-6)]GlcNAc
# Procedure, shortened: as §1
# [22] = target: Gal(b1-4)GlcNAc(b1-2)[Gal(b1-4)GlcNAc(b1-6)]Man(a1-6)[GlcNAc(b1-4)][Gal(b1-4)GlcNAc(b1-2)Man(a1-3)]Man(b1-4)GlcNAc(b1-4)GlcNAc
# Procedure, shortened: as §1
# [23] = target: Gal(b1-4)GlcNAc(b1-2)[Gal(b1-4)GlcNAc(b1-6)]Man(a1-6)[GlcNAc(b1-4)][Gal(b1-4)GlcNAc(b1-2)[Gal(b1-4)GlcNAc(b1-4)]Man(a1-3)]Man(b1-4)GlcNAc(b1-4)[Fuc(a1-6)]GlcNAc
# Procedure, shortened: as §1
# [24] = target: Gal(b1-4)GlcNAc(b1-3)Gal(b1-3)GalNAc
# Procedure, shortened: as §1
# [25] = target: Gal(b1-4)GlcNAc(b1-3)Gal(b1-3)GlcNAc
# Procedure, shortened: as §1
# [26] = target: Gal(b1-4)GlcNAc(b1-3)Gal(b1-4)Glc
# Procedure, shortened: as §1
# [27] = target: Gal(b1-4)GlcNAc(b1-3)Gal(b1-4)GlcNAc
# Procedure, shortened: as §1
# [28] = target: Gal(b1-4)GlcNAc(b1-3)Gal(b1-4)GlcNAc(b1-2)Man(a1-3)[Gal(b1-4)GlcNAc(b1-3)Gal(b1-4)GlcNAc(b1-2)Man(a1-6)]Man(b1-4)GlcNAc(b1-4)GlcNAc
# Procedure, shortened: as §1
# [29] = target: Gal(b1-4)GlcNAc(b1-3)Gal(b1-4)GlcNAc(b1-2)Man(a1-3)[Gal(b1-4)GlcNAc(b1-3)Gal(b1-4)GlcNAc(b1-2)Man(a1-6)]Man(b1-4)GlcNAc(b1-4)[Fuc(a1-6)]GlcNAc
# Procedure, shortened: as §1
# [30] = target: Gal(b1-4)GlcNAc(b1-3)Gal(b1-4)GlcNAc(b1-2)[Gal(b1-4)GlcNAc(b1-3)Gal(b1-4)GlcNAc(b1-6)]Man(a1-6)[Gal(b1-4)GlcNAc(b1-3)Gal(b1-4)GlcNAc(b1-2)Man(a1-3)]Man(b1-4)GlcNAc(b1-4)GlcNAc
# Procedure, shortened: as §1
binder,measurement,setting,value
Blon2355mut (Bifidobacterium longum) (protein) MVQEPTLEWHVIPEPTNVEPLVGTCSLPLSGTVVEQRGADDAEAVFARQLVDDIKRVCGGRWQVASGEVQREVTLRTSPSLDDWSYVLEVSPDGVVITGSGFEGVRDGVQTLRQIIRQIGLTIPCMVIRDRPAFSTRGYYLDVTRGRVPSMAWLKSWVDRLCFYKYNQFQLYIEHTFQFNGLSEVWRGADPLTSSDILELDSYCAARGIELVPSVSTFGHHYTALRTRQLRDLGEFPEDADRPFSLIERMTHHTLNITDERSYEFSTSLIDELMPLFRSRKFNICANETFDLGKGRSKQESAKRGVGAMYADFVERLCRHVDDRGHDVMVWADVALEHPEIIDTLPKNITWLNWQYEPNVDDGTTAALADAGATQMVCPAVWCWNALIPRIDDAWNNITRMARHGRAHDVSGMLVTDWGDFGHVNDPRMSVPGMIFGAQQSWNPDAELSEVDMLSRISTIEYGDHTGSVVGALRGASAKGGFSWSDLVTYLELDDGRGGCNTEIVRVMGCLEAYRNDLPQSGQARLADARVSMLRTLRDSILAGRELNGKLDDAAKDITQLLRVAGDPSSAAVWSLAIDGQRLLNRVGLALLAAHGVVRQDEAGIDAAKLADELECWTEQYSRLWHEVSRQSELARIQHVVWRAADVLRSI,glycan array binding signal (z-score),[1],0.156
same,glycan array binding signal (z-score),[2],-0.297
same,glycan array binding signal (z-score),[3],-0.719
same,glycan array binding signal (z-score),[4],-0.584
same,glycan array binding signal (z-score),[5],-1.03
same,glycan array binding signal (z-score),[6],-0.374
same,glycan array binding signal (z-score),[7],-0.617
same,glycan array binding signal (z-score),[8],-0.455
same,glycan array binding signal (z-score),[9],-0.951
same,glycan array binding signal (z-score),[10],-0.763
same,glycan array binding signal (z-score),[11],-0.264
same,glycan array binding signal (z-score),[12],-0.773
same,glycan array binding signal (z-score),[13],-0.881
same,glycan array binding signal (z-score),[14],-1.25
same,glycan array binding signal (z-score),[15],-0.33
same,glycan array binding signal (z-score),[16],-1.08
same,glycan array binding signal (z-score),[17],-1.14
same,glycan array binding signal (z-score),[18],-1.44
same,glycan array binding signal (z-score),[19],0.159
same,glycan array binding signal (z-score),[20],-0.993
same,glycan array binding signal (z-score),[21],-0.649
same,glycan array binding signal (z-score),[22],-0.31
same,glycan array binding signal (z-score),[23],-0.768
same,glycan array binding signal (z-score),[24],-0.46
same,glycan array binding signal (z-score),[25],-1.26
same,glycan array binding signal (z-score),[26],1.06
same,glycan array binding signal (z-score),[27],-0.599
same,glycan array binding signal (z-score),[28],0.408
same,glycan array binding signal (z-score),[29],-0.037
same,glycan array binding signal (z-score),[30],0.301

# Exported with tabs: entries from further up.
binder	measurement	setting	value
Blon2355mut (Bifidobacterium longum) (protein) MVQEPTLEWHVIPEPTNVEPLVGTCSLPLSGTVVEQRGADDAEAVFARQLVDDIKRVCGGRWQVASGEVQREVTLRTSPSLDDWSYVLEVSPDGVVITGSGFEGVRDGVQTLRQIIRQIGLTIPCMVIRDRPAFSTRGYYLDVTRGRVPSMAWLKSWVDRLCFYKYNQFQLYIEHTFQFNGLSEVWRGADPLTSSDILELDSYCAARGIELVPSVSTFGHHYTALRTRQLRDLGEFPEDADRPFSLIERMTHHTLNITDERSYEFSTSLIDELMPLFRSRKFNICANETFDLGKGRSKQESAKRGVGAMYADFVERLCRHVDDRGHDVMVWADVALEHPEIIDTLPKNITWLNWQYEPNVDDGTTAALADAGATQMVCPAVWCWNALIPRIDDAWNNITRMARHGRAHDVSGMLVTDWGDFGHVNDPRMSVPGMIFGAQQSWNPDAELSEVDMLSRISTIEYGDHTGSVVGALRGASAKGGFSWSDLVTYLELDDGRGGCNTEIVRVMGCLEAYRNDLPQSGQARLADARVSMLRTLRDSILAGRELNGKLDDAAKDITQLLRVAGDPSSAAVWSLAIDGQRLLNRVGLALLAAHGVVRQDEAGIDAAKLADELECWTEQYSRLWHEVSRQSELARIQHVVWRAADVLRSI	glycan array binding signal (z-score)	[14]	-1.25
same	glycan array binding signal (z-score)	[15]	-0.33
